Results are given in words; binding and its absence hold for the method and conditions named. In cells and extracts the contact can be indirect. Some binding calls cover weakened binding; strength is not graded here.
Target: TEAD4 (human (endogenous in A375R)) (UniProt Q15561)
Assay: co-IP; YAP and TAZ bound to TEAD4 in A375R cells, with LINC01198 knockdown or overexpression; detection method not stated

Chains of the proteins cited; added tags and fusions are not shown. Lines headed by an entry give the natural chain unless they say otherwise; changes in a name come on top.
UniProt Q15561: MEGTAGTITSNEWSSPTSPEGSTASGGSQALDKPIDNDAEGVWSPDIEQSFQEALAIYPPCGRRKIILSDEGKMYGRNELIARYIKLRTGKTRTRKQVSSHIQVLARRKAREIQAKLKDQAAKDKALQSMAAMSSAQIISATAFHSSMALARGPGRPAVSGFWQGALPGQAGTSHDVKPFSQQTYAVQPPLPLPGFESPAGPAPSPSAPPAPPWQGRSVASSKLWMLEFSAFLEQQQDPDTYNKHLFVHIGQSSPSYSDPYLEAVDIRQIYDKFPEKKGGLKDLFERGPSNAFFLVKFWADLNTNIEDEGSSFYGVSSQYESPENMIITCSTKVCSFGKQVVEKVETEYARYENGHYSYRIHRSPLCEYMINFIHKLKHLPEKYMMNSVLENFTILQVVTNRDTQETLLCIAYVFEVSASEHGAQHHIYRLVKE
UniProt Q9GZV5: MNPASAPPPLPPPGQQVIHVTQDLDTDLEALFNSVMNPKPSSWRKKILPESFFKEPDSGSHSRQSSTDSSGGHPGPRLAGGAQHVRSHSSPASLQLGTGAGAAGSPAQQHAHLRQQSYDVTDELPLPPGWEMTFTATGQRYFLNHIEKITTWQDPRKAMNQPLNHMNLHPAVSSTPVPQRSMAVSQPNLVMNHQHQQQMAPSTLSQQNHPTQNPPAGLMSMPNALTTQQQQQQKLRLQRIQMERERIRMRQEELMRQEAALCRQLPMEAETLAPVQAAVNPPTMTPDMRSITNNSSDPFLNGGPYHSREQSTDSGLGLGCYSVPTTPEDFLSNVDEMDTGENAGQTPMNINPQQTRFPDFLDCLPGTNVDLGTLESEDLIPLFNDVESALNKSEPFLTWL

binding: binds
Substance: TAZ (from UniProt Q9GZV5 1-400)

— PMC12559216
